The values below come from paper PMC5400277.

No constants are given. Whether binding was seen depends on the method and setting. Where a sequence is shown, tags or fusion partners need not be part of it.

To fix the notation:
T1: SPATULA (SPT), yeast two-hybrid fusion (Arabidopsis) (UniProt Q9FUA4)
T1 sequence: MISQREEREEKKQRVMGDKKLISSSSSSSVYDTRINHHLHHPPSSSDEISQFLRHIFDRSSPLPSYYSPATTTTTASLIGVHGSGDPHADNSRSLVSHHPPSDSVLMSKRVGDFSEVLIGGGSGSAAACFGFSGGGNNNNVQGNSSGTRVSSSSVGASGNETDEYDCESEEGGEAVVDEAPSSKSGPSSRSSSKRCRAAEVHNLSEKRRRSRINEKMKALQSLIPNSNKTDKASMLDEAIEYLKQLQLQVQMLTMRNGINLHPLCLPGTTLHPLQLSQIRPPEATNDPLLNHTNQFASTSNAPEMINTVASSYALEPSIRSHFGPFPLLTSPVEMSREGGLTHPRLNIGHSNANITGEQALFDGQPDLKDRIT

B1: ARR5, yeast two-hybrid fusion (protein, UniProt Q9SB04 1-184)
chain: MAEVLRPEMLDISNDTSSLASPKLLHVLAVDDSMVDRKFIERLLRVSSCKVTVVDSATRALQYLGLDGENNSSVGFEDLKINLIMTDYSMPGMTGYELLKKIKESSAFREIPVVIMSSENILPRIDRCLEEGAEDFLLKPVKLADVKRLRDSLMKAEERAFKNIMHKRELEANDIYSQLKRAKI
B2: ARR3, yeast two-hybrid fusion (protein, UniProt Q9ZWS9 1-231)
chain: MAKDGGVSCLRRSEMIGIGIGELESPPLDSDQVHVLAVDDSLVDRIVIERLLRITSCKVTAVDSGWRALEFLGLDDDKAAVEFDRLKVDLIITDYCMPGMTGYELLKKIKESTSFKEVPVVIMSSENVMTRIDRCLEEGAEDFLLKPVKLADVKRLRSYLTRDVKVAAEGNKRKLTTPPPPPPLSATSSMESSDSTVESPLSMVDDEDSLTMSPESATSLVDSPMRSPGLA
B3: ARR10, yeast two-hybrid fusion (protein, UniProt O49397 1-552)
chain: MTMEQEIEVLDQFPVGMRVLAVDDDQTCLRILQTLLQRCQYHVTTTNQAQTALELLRENKNKFDLVISDVDMPDMDGFKLLELVGLEMDLPVIMLSAHSDPKYVMKGVKHGACDYLLKPVRIEELKNIWQHVVRKSKLKKNKSNVSNGSGNCDKANRKRKEQYEEEEEEERGNDNDDPTAQKKPRVLWTHELHNKFLAAVDHLGVERAVPKKILDLMNVDKLTRENVASHLQKFRVALKKVSDDAIQQANRAAIDSHFMQMNSQKGLGGFYHHHRGIPVGSGQFHGGTTMMRHYSSNRNLGRLNSLGAGMFQPVSSSFPRNHNDGGNILQGLPLEELQINNNINRAFPSFTSQQNSPMVAPSNLLLLEGNPQSSSLPSNPGFSPHFEISKRLEHWSNAALSTNIPQSDVHSKPDTLEWNAFCDSASPLVNPNLDTNPASLCRNTGFGSTNAAQTDFFYPLQMNQQPANNSGPVTEAQLFRSSNPNEGLLMGQQKLQSGLMASDAGSLDDIVNSLMTQEQSQSDFSEGDWDLDGLAHSEHAYEKLHFPFSLSA
B4: ARR12, yeast two-hybrid fusion (protein, UniProt P62598 1-596)
chain: MTVEQNLEALDQFPVGMRVLAVDDDQTCLKILESLLRHCQYHVTTTNQAQKALELLRENKNKFDLVISDVDMPDMDGFKLLELVGLEMDLPVIMLSAHSDPKYVMKGVTHGACDYLLKPVRIEELKNIWQHVVRSRFDKNRGSNNNGDKRDGSGNEGVGNSDQNNGKGNRKRKDQYNEDEDEDRDDNDDSCAQKKQRVVWTVELHKKFVAAVNQLGYEKAMPKKILDLMNVEKLTRENVASHLQKFRLYLKRISGVANQQAIMANSELHFMQMNGLDGFHHRPIPVGSGQYHGGAPAMRSFPPNGILGRLNTPSGIGVRSLSSPPAGMFLQNQTDIGKFHHVSSLPLNHSDGGNILQGLPMPLEFDQLQTNNNKSRNMNSNKSIAGTSMAFPSFSTQQNSLISAPNNNVVVLEGHPQATPPGFPGHQINKRLEHWSNAVSSSTHPPPPAHNSNSINHQFDVSPLPHSRPDPLEWNNVSSSYSIPFCDSANTLSSPALDTTNPRAFCRNTDFDSNTNVQPGVFYGPSTDAMALLSSSNPKEGFVVGQQKLQSGGFMVADAGSLDDIVNSTMKQEQSQGDLSGGDLGYGGFSSLRTCI
B5: ARR11, yeast two-hybrid fusion (protein, UniProt Q9FXD6 1-521)
chain: MEKSGFSPVGLRVLVVDDDPTWLKILEKMLKKCSYEVTTCGLAREALRLLRERKDGYDIVISDVNMPDMDGFKLLEHVGLELDLPVIMMSVDGETSRVMKGVQHGACDYLLKPIRMKELKIIWQHVLRKKLQEVRDIEGCGYEGGADWITRYDEAHFLGGGEDVSFGKKRKDFDFEKKLLQDESDPSSSSSKKARVVWSFELHHKFVNAVNQIGCDHKAGPKKILDLMNVPWLTRENVASHLQKYRLYLSRLEKGKELKCYSGGVKNADSSPKDVEVNSGYQSPGRSSYVFSGGNSLIQKATEIDPKPLASASLSDLNTDVIMPPKTKKTRIGFDPPISSSAFDSLLPWNDVPEVLESKPVLYENSFLQQQPLPSQSSYVANSAPSLMEEEMKPPYETPAGGSSVNADEFLMPQDKIPTVTLQDLDPSAMKLQEFNTEAILRSLNWELPESHHSVSLDTDLDLTWLQGERFLANTGLQFQDYSSSPSLLSELPAHLNWYGNERLPDPDEYSFMVDQGLFIS
B6: ARABIDOPSIS RESPONSE REGULATOR 1 (ARR1), yeast two-hybrid fusion (protein, UniProt Q940D0 1-690)
chain: MMNPSHGRGLGSAGGSSSGRNQGGGGETVVEMFPSGLRVLVVDDDPTCLMILERMLRTCLYEVTKCNRAEMALSLLRKNKHGFDIVISDVHMPDMDGFKLLEHVGLEMDLPVIMMSADDSKSVVLKGVTHGAVDYLIKPVRMEALKNIWQHVVRKRRSEWSVPEHSGSIEETGERQQQQHRGGGGGAAVSGGEDAVDDNSSSVNEGNNWRSSSRKRKDEEGEEQGDDKDEDASNLKKPRVVWSVELHQQFVAAVNQLGVEKAVPKKILELMNVPGLTRENVASHLQKYRIYLRRLGGVSQHQGNLNNSFMTGQDASFGPLSTLNGFDLQALAVTGQLPAQSLAQLQAAGLGRPAMVSKSGLPVSSIVDERSIFSFDNTKTRFGEGLGHHGQQPQQQPQMNLLHGVPTGLQQQLPMGNRMSIQQQIAAVRAGNSVQNNGMLMPLAGQQSLPRGPPPMLTSSQSSIRQPMLSNRISERSGFSGRNNIPESSRVLPTSYTNLTTQHSSSSMPYNNFQPELPVNSFPLASAPGISVPVRKATSYQEEVNSSEAGFTTPSYDMFTTRQNDWDLRNIGIAFDSHQDSESAAFSASEAYSSSSMSRHNTTVAATEHGRNHQQPPSGMVQHHQVYADGNGGSVRVKSERVATDTATMAFHEQYSNQEDLMSALLKQEGIAPVDGEFDFDAYSIDNIPV
B7: ARR6, yeast two-hybrid fusion (protein, UniProt Q9ZWS6 1-186)
chain: MAEVMLPRKMEILNHSSKFGSPDPLHVLAVDDSHVDRKFIERLLRVSSCKVTVVDSATRALQYLGLDVEEKSVGFEDLKVNLIMTDYSMPGMTGYELLKKIKESSAFREVPVVIMSSENILPRIDRCLEEGAEDFLLKPVKLSDVKRLRDSLMKVEDLSFTKSIQKRELETENVYPVHSQLKRAKI
B8: ARR9, yeast two-hybrid fusion (protein, UniProt O80366 1-234)
chain: MGMAAESQFHVLAVDDSLFDRKLIERLLQKSSCQVTTVDSGSKALEFLGLRQSTDSNDPNAFSKAPVNHQVVEVNLIITDYCMPGMTGYDLLKKVKESSAFRDIPVVIMSSENVPARISRCLEEGAEEFFLKPVRLADLNKLKPHMMKTKLKNQKLEEIETTSKVENGVPTAVADPEIKDSTNIEIEILPLQQDLLLVQQEEQTLSINNKRKSVEEGISTDRARPRFDGIATAV
B9: ARR15, yeast two-hybrid fusion (protein, UniProt Q7G8V2 1-206)
chain: MALRDLSSSLSSSSSPELHVLAVDDSFVDRKVIERLLKISACKVTTVESGTRALQYLGLDGDNGSSGLKDLKVNLIVTDYSMPGLTGYELLKKIKESSALREIPVVIMSSENIQPRIEQCMIEGAEEFLLKPVKLADVKRLKELIMRGGEAEEGKTKKLSPKRILQNDIDSSPSSSSTSSSSSSHDVSSLDDDTPSSKRIKLESRG
B10: ARR8, yeast two-hybrid fusion (protein, UniProt O80365 1-225)
chain: MVMETESKFHVLAVDDSLFDRKMIERLLQKSSCQVTTVDSGSKALEFLGLRVDDNDPNALSTSPQIHQEVEINLIITDYCMPGMTGYDLLKKVKESAAFRSIPVVIMSSENVPARISRCLEEGAEEFFLKPVKLADLTKLKPHMMKTKLKKESEKPVAIEEIVVSKPEIEEEEEESSVIEILPLHQEIESEQLEPMLSSNKRKAMEEVVSTDRSRPKYNDITTSV
B11: ARR2, yeast two-hybrid fusion (protein, UniProt Q9ZWJ9 1-664)
chain: MVNPGHGRGPDSGTAAGGSNSDPFPANLRVLVVDDDPTCLMILERMLMTCLYRVTKCNRAESALSLLRKNKNGFDIVISDVHMPDMDGFKLLEHVGLEMDLPVIMMSADDSKSVVLKGVTHGAVDYLIKPVRIEALKNIWQHVVRKKRNEWNVSEHSGGSIEDTGGDRDRQQQHREDADNNSSSVNEGNGRSSRKRKEEEVDDQGDDKEDSSSLKKPRVVWSVELHQQFVAAVNQLGVDKAVPKKILEMMNVPGLTRENVASHLQKYRIYLRRLGGVSQHQGNMNHSFMTGQDQSFGPLSSLNGFDLQSLAVTGQLPPQSLAQLQAAGLGRPTLAKPGMSVSPLVDQRSIFNFENPKIRFGDGHGQTMNNGNLLHGVPTGSHMRLRPGQNVQSSGMMLPVADQLPRGGPSMLPSLGQQPILSSSVSRRSDLTGALAVRNSIPETNSRVLPTTHSVFNNFPADLPRSSFPLASAPGISVPVSVSYQEEVNSSDAKGGSSAATAGFGNPSYDIFNDFPQHQQHNKNISNKLNDWDLRNMGLVFSSNQDAATATATAAFSTSEAYSSSSTQRKRRETDATVVGEHGQNLQSPSRNLYHLNHVFMDGGSVRVKSERVAETVTCPPANTLFHEQYNQEDLMSAFLKQEGIPSVDNEFEFDGYSIDNIQV
B12: ARR4, yeast two-hybrid fusion (protein, UniProt O82798 1-259)
chain: MARDGGVSCLRRSEMMSVGGIGGIESAPLDLDEVHVLAVDDSLVDRIVIERLLRITSCKVTAVDSGWRALEFLGLDNEKASAEFDRLKVDLIITDYCMPGMTGYELLKKIKESSNFREVPVVIMSSENVLTRIDRCLEEGAQDFLLKPVKLADVKRLRSHLTKDVKLSNGNKRKLPEDSSSVNSSLPPPSPPLTISPESSPPLTVSTESSDSSPPLSPVEIFSTSPLSSPIDDEDDDVLTSSSEESPIRRQKMRSPGLD
B13: ARR16, yeast two-hybrid fusion (protein, UniProt Q9SHC2 1-164)
chain: MNSSGGSCSSLMDVVAYDHHLHHGHDEELHVLAVDDNLIDRKLVERLLKISCCKVTTAENALRALEYLGLGDQNQHIDALTCNVMKVSLIITDYCMPGMTGFELLKKVKESSNLREVPVVIMSSENIPTRINKCLASGAQMFMQKPLKLADVEKLKCHLMNCRS

In this experiment the target is T1, SPATULA (SPT), yeast two-hybrid fusion (Arabidopsis). The experiment is described as follows: two-hybrid; DNA-binding domain fusion (SPT in the LexA vector pBTM116c-D9) against Gal4 activation domain fusions (ARRs in pACT2); yeast strain L40ccaU; SD-Gluc medium lacking Leu, Trp, His with 3 mM 3-amino-1,2,4-triazole; scored after 5 days at 25°C.
Take B1: the binding entry was “no binding”.

Regarding B2, the binding result is on record as “no binding”.

In the case of B3, the binding entry was “no binding”.

Regarding B4, the binding entry was “no binding”.

On to B5, for which the binding entry is “no binding”.

As for B6, the binding entry was “no binding”.

Take B7: the binding result was “no binding”.

B8: the binding result is “no binding”.

For B9, the binding result is “no binding”.

In the case of B10, the binding entry was “no binding”.

On to B11, for which the binding entry is on record as “no binding”.

For B12, the binding entry is listed as “no binding”.

Consider B13, for which the binding entry was “no binding”.
